In the supplement of paper PMC4604168 (melanoma cell lines):
Some of the results follow. Repeats are few or missing, and single values can be far off.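 The apoptosis fraction was the count of cleaved-PARP antibody-stained nuclei relative to all DNA-stained nuclei, imaged in 1,536-well plates. Screening doses were set so most cells survived, and baseline and induced cleaved-PARP levels vary greatly across cell lines.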

test system: RVH-421; experiment: cleaved PARP positive nuclei fraction relative to DMSO control; melanoma cells; higher = more apoptosis; settings: library dose: low library concentration; 72 h

| Structure (SMILES) | cleaved PARP positive nuclei fraction |
| --- | --- |
| N#CC[C@H](C1CCCC1)n1cc(-c2ncnc3[nH]ccc23)cn1 [ruxolitinib] + C=CCNC1=C2C[C@@H](C)C[C@H](OC)[C@H](O)[C@@H](C)/C=C(\C)[C@H](OC(N)=O)[C@@H](OC)/C=C\C=C(/C)C(=O)NC(=CC1=O)C2=O [Tanespimycin] (first compound 1 µM, partner dose 0.002 µM) | 86.4% |
| Cc1cn(-c2cc(NC(=O)c3ccc(C)c(Nc4nccc(-c5cccnc5)n4)c3)cc(C(F)(F)F)c2)cn1 [nilotinib] + COCC[n+]1c2c(n(Cc3cnccn3)c1C)C(=O)c1ccccc1C2=O [YM155] (first compound 0.2 µM, partner dose 0.0004 µM) | 121% |
| Cc1cn(-c2cc(NC(=O)c3ccc(C)c(Nc4nccc(-c5cccnc5)n4)c3)cc(C(F)(F)F)c2)cn1 [nilotinib] + CCN(CC)CCNC(=O)c1c(C)[nH]c(/C=C2\C(=O)Nc3ccc(F)cc32)c1C [sunitinib] (first compound 0.2 µM, partner dose 0.4 µM) | 163% |
| COc1cc([C@@H]2c3cc4c(cc3[C@@H](O[C@@H]3O[C@@H]5CO[C@@H](C)O[C@H]5[C@H](O)[C@H]3O)[C@H]3COC(=O)[C@H]23)OCO4)cc(OC)c1O [etoposide] + CNC(=O)c1cc(Oc2ccc(NC(=O)Nc3ccc(Cl)c(C(F)(F)F)c3)cc2)ccn1 [sorafenib] (first compound 0.02 µM, partner dose 0.4 µM) | 147% |
| Cc1cc(Nc2cc(N3CCN(C)CC3)nc(Sc3ccc(NC(=O)C4CC4)cc3)n2)n[nH]1 [Tozasertib] + CN1CCN(c2ccc3nc(-c4c(N)c5c(F)cccc5[nH]c4=O)[nH]c3c2)CC1 [Dovitinib] (first compound 0.006 µM, partner dose 0.1 µM) | 167% |
| COc1cc([C@@H]2c3cc4c(cc3[C@@H](O[C@@H]3O[C@@H]5CO[C@@H](C)O[C@H]5[C@H](O)[C@H]3O)[C@H]3COC(=O)[C@H]23)OCO4)cc(OC)c1O [etoposide] + Nc1cccc2c1CN(C1CCC(=O)NC1=O)C2=O [lenalidomide] (first compound 0.02 µM, partner dose 1 µM) | 378% |
| CC[C@]1(O)C[C@H]2CN(CCc3c([nH]c4ccccc34)[C@@](C(=O)OC)(c3cc4c(cc3OC)N(C=O)[C@H]3[C@@](O)(C(=O)OC)[C@H](OC(C)=O)[C@]5(CC)C=CCN6CC[C@]43[C@@H]65)C2)C1 [vincristine] + Cc1cn(-c2cc(NC(=O)c3ccc(C)c(Nc4nccc(-c5cccnc5)n4)c3)cc(C(F)(F)F)c2)cn1 [nilotinib] (first compound 0.0001 µM, partner dose 0.2 µM) | 77.3% |
| N#CC[C@H](C1CCCC1)n1cc(-c2ncnc3[nH]ccc23)cn1 [ruxolitinib] + Nc1cccc2c1CN(C1CCC(=O)NC1=O)C2=O [lenalidomide] (first compound 1 µM, partner dose 1 µM) | 59.2% |
| N#CC[C@H](C1CCCC1)n1cc(-c2ncnc3[nH]ccc23)cn1 [ruxolitinib] + COCC[n+]1c2c(n(Cc3cnccn3)c1C)C(=O)c1ccccc1C2=O [YM155] (first compound 1 µM, partner dose 0.0004 µM) | 133% |
| CCCCCCCCCCCCCCCCCCOP(=O)([O-])OC1CC[N+](C)(C)CC1 [Perifosine] + O=C(O)[C@@H]1[O][Sb](=[O])([O][Sb]2(=[O])[O][C@H]([C@H](O)CO)[C@H](O)[C@H](C(=O)O)[O]2)[O][C@H]([C@H](O)CO)[C@@H]1O [stibogluconate] (first compound 0.4 µM, partner dose 2 µM) | 70.9% |
| O=c1[nH]nc(Sc2ncc([N+](=O)[O-])s2)n1-c1ccc2c(c1)OCCO2 + Nc1ncn([C@H]2C[C@H](O)[C@@H](CO)O2)c(=O)n1 [decitabine] (first compound 0.2 µM, partner dose 0.1 µM) | 217% |
| O=C(Nc1cc(C(F)(F)F)cc(C(F)(F)F)c1)c1cc(Cl)ccc1O + CC(C)C[C@H](NC(=O)[C@H](Cc1ccccc1)NC(=O)c1cnccn1)B(O)O [Bortezomib] (first compound 0.016 µM, partner dose 0.001 µM) | 47.5% |

Given as tab-separated lines: part of the list above.
Structure (SMILES)	cleaved PARP positive nuclei fraction
Cc1cn(-c2cc(NC(=O)c3ccc(C)c(Nc4nccc(-c5cccnc5)n4)c3)cc(C(F)(F)F)c2)cn1 [nilotinib] + COCC[n+]1c2c(n(Cc3cnccn3)c1C)C(=O)c1ccccc1C2=O [YM155] (first compound 0.2 µM, partner dose 0.0004 µM)	121%
Cc1cn(-c2cc(NC(=O)c3ccc(C)c(Nc4nccc(-c5cccnc5)n4)c3)cc(C(F)(F)F)c2)cn1 [nilotinib] + CCN(CC)CCNC(=O)c1c(C)[nH]c(/C=C2\C(=O)Nc3ccc(F)cc32)c1C [sunitinib] (first compound 0.2 µM, partner dose 0.4 µM)	163%
